Source: PubChem BioAssay AID1745850 (National Center for Advancing Translational Sciences (NCATS), 2022)
Out of some 2,100 compounds screened, about 260 (12%) were called active. Inconclusive means that the source gave no clear call. Such entries were picked first, then a sample of the others. Calls come from the whole dose curve; as a rule, active = well fitted cell-killing curve with a large enough effect; inconclusive = small, poorly fitted or top-dose-only effect, or effect the other way; inactive = flat fitted curve, though single readings scatter. Potencies beside an inconclusive call are fits to weak or partial responses and may not hold up.

Assay: Viability Counterscreen for Confirmatory qHTS for Inhibitors of ATXN expression; note: nearly all actives have a fitted effect of over 50% in size
Conditions: HEK-293 ATXN2-luc cells viability, CellTiter-Fluor, 24 h
Procedure, shortened: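 Luminescence read-out (SteadyGlo, 5 min) followed a 30 min Gly-Phe-AFC (25 uM final) viability fluorescence read. ATXN2-luciferase reporter cells were exposed 24 h to a dilution series. Medium-only wells served as the 100% inhibition reference.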
Potency is the fitted concentration of half-maximal effect.

Row | Structure (SMILES) | Potency
1 | CCOC(=O)c1ccc(NC(=O)c2nc[nH]c2C(=O)N[C@H](C)c2ccccc2)cc1 | inactive
2 | N#Cc1ccc(/C=C\c2nccc3c2[nH]c2ccccc23)cc1 | inconclusive: 0.355 µM [rising, full curve, poor fit]
3 | O=C(c1ccco1)N1CCN(c2ccnc3cc(Cl)ccc23)CC1 | inactive
4 | O=C(c1ccc(F)cc1F)C1CCN(c2ccc([N+](=O)[O-])cn2)CC1 | inconclusive: 14.1 µM [cytotoxic, partial curve, poor fit]
5 | CN1CCC2(CC1)N=C(c1ccc(F)cc1)C(=S)N2C(=O)c1ccc(C(C)(C)C)cc1 | inactive
6 | Cc1cc(C)c(S(=O)(=O)/N=C2\C=C(Nc3ccc(C(=O)O)cc3)C(=O)c3ccccc32)c(C)c1 | active: 3.16 µM
7 | CCCC(=O)NC(c1ccc(C(C)C)cc1)c1ccc2cccnc2c1O (stereo not drawn) | inactive
8 | Clc1ccc(-c2cc(C3CCNCC3)[nH]n2)c(Cl)c1 | inconclusive: 39.8 µM [cytotoxic, partial curve, poor fit]
9 | CNc1ccccc1C(=O)OC(C)C(=O)Nc1ccc(Cl)cn1 (stereo not drawn) | inactive
10 | CC(Sc1nnc2c(n1)[nH]c1ccccc12)C(=O)N(C)C1CCCCC1 (stereo not drawn) | active: 20 µM
11 | O=C(/C=C/c1ccc(Cl)cc1)Nc1ccc(CN2CCOCC2)cc1 | inactive
12 | COc1ccc2c(Cl)c(C(=O)NN)sc2c1 | inactive
13 | Nc1cccc2nc3ccccc3cc12 | inactive
14 | Cc1cc(C)c2c(CC(=O)Nc3ccc(Cl)cn3)coc2c1 | inactive
15 | Cc1cccc(OCCSc2nc3ncnc(N)c3[nH]2)c1 | inactive
16 | C/C(=N\NC(=O)C1COc2ccccc2O1)c1ccccn1 (stereo not drawn) | inconclusive: 2.51 µM [cytotoxic, partial curve]
17 | CC(Oc1ccc(Cl)cc1)C(=O)NNC(=S)NC(=O)c1ccco1 (stereo not drawn) | inconclusive: 28.2 µM [cytotoxic, single point]
18 | CCCCC1C(=O)CC[C@H]2[C@@H]1CC(=O)[C@@H]2C/C=C\CCCC(=O)O (stereo partly drawn) | inconclusive: 3.55 µM [cytotoxic, partial curve, poor fit]
19 | COc1ccc2[nH]c3c(N4CCC(O)(c5cccc(C(F)(F)F)c5)CC4)ncnc3c2c1 | active: 3.16 µM
20 | Cc1ccc(S(=O)(=O)NCC(=O)N/N=C/c2ccccc2O)cc1 | inactive
21 | CC[C@]12c3[nH]c4ccc(Cl)cc4c3CCN1C(=O)[C@@H](CC(=O)NCC13CC4CC(CC(C4)C1)C3)C[C@@H]2C(=O)N1CCN(C(=O)c2ccco2)CC1 | inconclusive: 3.16 µM [cytotoxic, single point]
22 | Cc1ccc(C)c(S(=O)(=O)N2CCN(Cc3ccc(O)c4ncccc34)CC2)c1 | inconclusive: 7.94 µM [cytotoxic, full curve]
23 | Cc1nnc(-c2ccccc2)c(=O)n1/N=C/c1c(O)ccc2ccccc12 | inconclusive: 14.1 µM [cytotoxic, partial curve]
24 | CCn1c2ccccc2c2cc(NC(=O)COC(=O)c3cc(S(=O)(=O)N4CCCCC4)ccc3Cl)ccc21 | inactive
25 | C=CCc1cccc(/C=N/NC(=O)CCC(=O)Nc2ccc(C)cc2)c1O | inconclusive: 10 µM [cytotoxic, partial curve, poor fit]

Row | Structure (SMILES) | Potency
26 | Cc1[nH]n(-c2ccccc2)c(=O)c1C=Nc1cccc2cccnc12 | inactive
27 | Cc1ccc(NC(=O)c2ccc(-c3nn(C)c(=O)c4ccccc34)cc2)cc1 | inactive
28 | COc1cc(/C=N/NC(=O)c2cncc(Br)c2)cc([N+](=O)[O-])c1O | inconclusive: 3.55 µM [cytotoxic, single point]
29 | Cc1cc(C)cc(NC(=O)/C(C#N)=C/c2cn(CC(=O)NCc3ccco3)c3ccccc23)c1 | inactive
30 | Cc1cc(C2=NNC(=NC3CC3)SC2)c(C)n1-c1ccccc1F | inactive
31 | Cc1ccc(C)c(OCCCC(=O)Nc2nccs2)c1 | inactive
32 | CC(C)C(=O)NC(c1ccccc1)c1cc([N+](=O)[O-])c2cccnc2c1O (stereo not drawn) | active: 22.4 µM
33 | CCCCSc1nc(C)cc(SCC(=O)N/N=C/c2cccc(OC)c2O)n1 | inactive
34 | N#Cc1ccccc1NC(=O)C1SC(=Nc2ccccc2)C(C(=O)Nc2ccc(Cl)cc2)=C1N (stereo not drawn) | inactive
35 | CC(=O)c1sc(NC(=O)c2cc(-c3ccccc3)nn2-c2ccccc2)nc1C | inactive
36 | Cc1c(N=C2N=C(NC(=O)c3ccc(F)cc3)c3ccccc32)c(=O)n(-c2ccccc2)n1C | inactive
37 | COc1ccccc1N1CCN(C(=O)c2cc3c(C)nc4ccccc4c3o2)CC1 | inconclusive: 3.16 µM [cytotoxic, partial curve]
38 | Cc1sc2nc(CN3CCCC3)nc(N3CCC(C(N)=O)CC3)c2c1C | inactive
39 | COc1cccc(/C=N/Nc2ncc(C(F)(F)F)cc2Cl)c1O | inconclusive: 20 µM [cytotoxic, partial curve, poor fit]
40 | Cn1cc(C(=O)c2ccc(Cl)cc2Cl)cc1C(=O)N/N=C(\N)COc1ccc(Cl)cc1 | inconclusive: 14.1 µM [cytotoxic, partial curve]
41 | N#Cc1cc2cc3c(cc2nc1SCC(=O)N1CCOCC1)OCCO3 | inactive
42 | CCOC(=O)c1cnc2ccc(OC)cc2c1Nc1ccc(N2CCN(C)CC2)cc1 | inconclusive: 28.2 µM [cytotoxic, single point]
43 | O=[N+]([O-])c1cc(CN2CCN(c3ccccc3)CC2)c(O)c2ncccc12 | inconclusive: 11.2 µM [cytotoxic, partial curve]
44 | COc1cccc(CNc2nc(NCc3ccccc3)nc3ccsc23)c1 | inconclusive: 35.5 µM [cytotoxic, single point]
45 | Cc1cccc(CN2C(=O)/C(=C\c3ccc(C(=O)NCCN4CCOCC4)cc3)Sc3ccccc32)c1 | inconclusive: 39.8 µM [cytotoxic, single point]
46 | N#C/C(=N\Nc1cccc([N+](=O)[O-])c1)C(=O)c1ccc(Br)cc1 | active: 2.51 µM
47 | [O-][n+]1c2ccccc2cc2ccccc21 | inactive
48 | Cc1ccc(NC(=O)C2CCN(S(=O)(=O)c3ccc(N4CCCC4=O)cc3)CC2)cc1Cl | inactive
49 | O=[N+]([O-])c1ccc(C[n+]2cccc3ccc4cccnc4c32)cc1 | inactive
50 | CCCCOc1ccccc1NC(=O)Cn1c(-c2nonc2N)nc2ccccc21 | active: 11.2 µM

Laid out differently: entries from further up.
Row	Structure (SMILES)	Potency
31	Cc1ccc(C)c(OCCCC(=O)Nc2nccs2)c1	inactive
35	CC(=O)c1sc(NC(=O)c2cc(-c3ccccc3)nn2-c2ccccc2)nc1C	inactive

More results:

Row | Structure (SMILES) | Potency
51 | CN(Cc1ccccc1)C1=CC(=[N+]2CCCC2)CC(C)(C)C1 | inconclusive: 3.16 µM [cytotoxic, partial curve, poor fit]
52 | CC(=O)Oc1ccc(N(C(C)=O)S(=O)(=O)c2ccc(C)cc2)c2ccccc12 | inconclusive: 3.16 µM [cytotoxic, single point]
53 | Cc1csc2c(N3CCN(C(=O)Nc4ccc(Cl)c(Cl)c4)CC3)ncnc12 | inactive
54 | S=C(NCc1cccnc1)Nc1ccc(Oc2ccc(Cl)cc2)cc1 | inconclusive: 14.1 µM [cytotoxic, partial curve, poor fit]
55 | O=C(Nc1cccc2ccccc12)OC1C=CS(=O)(=O)C1 (stereo not drawn) | inactive
56 | CC1(C)Cc2c(sc(NC(=O)c3ccc(C(=O)c4ccccc4)cc3)c2C(N)=O)C(C)(C)N1 | active: 28.2 µM
57 | CC(=O)c1c(C)oc2ccc(N(C(C)=O)S(=O)(=O)c3cccc4cccnc34)cc12 | inconclusive: 17.8 µM [cytotoxic, partial curve]
58 | CCN1C(=O)C(CC(=O)Nc2ccc(OC)cc2)N(CCc2ccc(F)cc2)C1=S (stereo not drawn) | inconclusive: 3.16 µM [cytotoxic, single point]
59 | Cc1ccc2cc(C#N)c(N3CCN(C(=O)c4ccccc4)CC3)nc2c1 | inconclusive: 39.8 µM [cytotoxic, single point]
60 | O=C1c2cccc3c([N+](=O)[O-])ccc(c23)C(=O)N1c1ccccn1 | inconclusive: 1.26 µM [rising, partial curve]
61 | CCNc1ccc(Br)cc(C(=O)/C=C/c2ccc(Cl)cc2Cl)c1=O | inconclusive: 3.98 µM [cytotoxic, partial curve, poor fit]
62 | CC1=C(CC[C@@H](C)CO)OC2CC3C4CCC5CC(O)CCC5(C)C4CC(=O)C3(C)C12 (stereo partly drawn) | inconclusive: 3.16 µM [cytotoxic, single point]
63 | Cc1c(C(=O)NCc2ccc(F)cc2)sc(=O)n1Cc1ccc(Cl)c(Cl)c1 | inconclusive: 35.5 µM [cytotoxic, single point]
64 | CCOc1cc([C@@H]2C[C@H]3CN(c4ccccc4)C(=O)[C@]34CCCN24)ccc1OC | inconclusive: 14.1 µM [cytotoxic, partial curve, poor fit]
65 | Fc1ccc2[nH]c3c(NCc4ccccc4)ncnc3c2c1 | inactive
66 | COCCCNC1=C(Cl)C(=O)c2ccccc2C1=O | inconclusive: 31.6 µM [cytotoxic, partial curve]
67 | Clc1ccc(CSc2ccc(-c3ccccn3)nn2)cc1 | inactive
68 | COc1cc([N+](=O)[O-])cc(/C=N/NC(=O)c2ccc(NC(=O)c3ccc(C)cc3)cc2)c1O | active: 1.78 µM
69 | COCCCn1c(-c2ccc(S(=O)(=O)N3CCOCC3)cc2)csc1=Nc1ccccc1 | inconclusive: 3.16 µM [cytotoxic, single point]
70 | NNC(=O)c1nc(-c2ccccc2)cc(-c2ccccc2)n1 | inconclusive: 35.5 µM [cytotoxic, partial curve, poor fit]
71 | COc1ccc(CCNc2ncnc3c2[nH]c2cc(OC)c(OC)cc23)cc1OC | inconclusive: 39.8 µM [cytotoxic, single point]
72 | CCCCCCc1cc2cc(C(=O)Nc3ccccc3)c(=O)oc2cc1O | inactive
73 | Cn1cc(/C=C/c2cc[n+](C)cc2)c2cc(F)ccc21 | inactive

A second format for part of the listing above:

| Row | Structure (SMILES) | Potency |
| --- | --- | --- |
| 40 | Cn1cc(C(=O)c2ccc(Cl)cc2Cl)cc1C(=O)N/N=C(\N)COc1ccc(Cl)cc1 | inconclusive: 14.1 µM [cytotoxic, partial curve] |
| 41 | N#Cc1cc2cc3c(cc2nc1SCC(=O)N1CCOCC1)OCCO3 | inactive |
| 42 | CCOC(=O)c1cnc2ccc(OC)cc2c1Nc1ccc(N2CCN(C)CC2)cc1 | inconclusive: 28.2 µM [cytotoxic, single point] |
